Source: patent US5898069A, “Phosphate assay” (Medical Research Council, priority 1993, dated 1999)
For at least one compound, name, drawing or mass did not settle the structure.

Test system: purine nucleoside phosphorylase
Test: Phosphorolysis of 7-methyl guanosine by purine nucleoside phosphorylase (Pi mop), absorbance change at 260 nm
Type: biochemical, bacterial
Details: pH 8.0, 20 mM Tris.HCl, 1 μM MgCl2, 30° C.

C[n+]1cn([C@@H]2O[C@H](CO)[C@@H](O)[C@H]2O)c2nc(N)[nH]c(=O)c21 [MEG, 7-methyl guanosine]
Km: 59 µM | kcat: 109 s⁻¹
